Laboratory results from US20240158538A1.
Numbering of substitutions follows the chain as printed. No constants are given. Whether binding was seen depends on the method and setting. Some entries that bind do so weakly or less than the wild type.

The chains behind the UniProt entries cited, without tags or fusion partners. Where a name states a change or a piece, a line headed by the entry shows the natural chain unless it says otherwise.
UniProt Q9H7M9: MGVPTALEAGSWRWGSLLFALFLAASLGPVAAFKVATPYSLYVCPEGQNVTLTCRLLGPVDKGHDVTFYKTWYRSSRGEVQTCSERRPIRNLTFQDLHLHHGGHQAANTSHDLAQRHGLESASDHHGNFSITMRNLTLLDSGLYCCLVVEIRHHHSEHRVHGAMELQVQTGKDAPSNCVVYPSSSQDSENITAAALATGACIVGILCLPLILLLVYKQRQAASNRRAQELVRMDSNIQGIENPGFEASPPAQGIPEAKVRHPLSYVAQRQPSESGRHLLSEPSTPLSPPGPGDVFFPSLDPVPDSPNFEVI

B1: anti-VISTA clone V4-C1 IgG1 (antibody, V domains shown)
VH: QVQLQESGPGLVKPSDTLSLTCTVSGYSITSDYAWNWIRQTPGKGLEWIGYITYSGYISYNPSLRSRVTISRDTSKNQFSLKLSSVTAADTAVYSCARALYYPWYFDVWGTGTTVTVSS
VL: EIVITQSPATLSLSPGERATLSCRASSSVGYIHWYQQKPGQAPRPLIYATSNRATGIPARFSGSGSGTDNTLTISSLEPEDSAVYYCQQWSSYPPITFGGGTKLEVKR
B2: anti-VISTA clone V4-C9 IgG1 (antibody, V domains shown)
VH: B1 VH with I58V
VL: B1 VL with I4L
B3: anti-VISTA clone V4-C24 IgG1 (antibody, V domains shown)
VH: B1 VH with A34T, Y51H, Y57S, I58V, V93T
VL: B1 VL with I4L, A49T, N52Y
B4: anti-VISTA clone V4-C26 IgG1 (antibody, V domains shown)
VH: B1 VH with A34T, Y51H, Y57S, I58V, V93T
VL: B1 VL with I4L, L46I, A49T
B5: anti-VISTA clone V4-C27 IgG1 (antibody, V domains shown)
VH: B1 VH with A34T, Y51H, Y57S, I58V, V93T
VL: B1 VL with I4L, S51Y
B6: anti-VISTA clone V4-C28 IgG1 (antibody, V domains shown)
VH: B1 VH with A34T, Y51H, Y57S, I58V, V93T
VL: B1 VL with I4L, N52Y
B7: anti-VISTA clone V4-C30 IgG1 (antibody, V domains shown)
VH: B1 VH with A34T, Y51H, Y57S, I58V, V93T
VL: B1 VL with I4L, S51Y, N52Y
B8: anti-VISTA clone V4-C31 IgG1 (antibody, V domains shown)
VH: B1 VH with A34T, Y51H, Y57S, I58V, V93T
VL: B1 VL with I4L, S51Y, N52Y, A54T

These binders were tested against human VISTA polypeptide (ELISA coat) (human) (UniProt Q9H7M9) (assay: ELISA, plate coated with human VISTA).

binding, binds:
B1, B2, B3, B4, B5, B6, B7, B8

The binders below were run against human VISTA polypeptide (ELISA coat) (human) (UniProt Q9H7M9) (assay: ELISA, plate-coated protein).

binding, binds:
B3, B4, B5, B6, B7, B8

The binders below were run against human VISTA polypeptide (ELISA coat) (human) (UniProt Q9H7M9) (assay: ELISA, plate coated with B7H5 (VISTA)).

binding, binds:
B3, B4, B5, B6, B7, B8
